Assay results reported in PubChem BioAssay AID179 (DTP/NCI, 2004).

Tested on: CEM cells HIV-1 protection, formazan growth assay
Test: NCI AIDS Antiviral Assay
Procedure, shortened: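 Category rules: moderately active means at least 50% protection on retest, and confirmed active means 100% protection reproducibly. The underlying data came from a formazan growth assay in HIV-1-infected CEM cells.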

Question: How did the EC50 turn out when `COc1c(O)cc2c(c1OC)-c1ccc(OC)c(=O)cc1[C@@H](NC(C)=O)CC2` was run?
Answer: > 200 nM

Question: What about the IC50 (measured here: growth of uninfected CEM cells) of the same compound?
Answer: 32.4 nM
